The list shows a part of the results. Shown are side measurements of this screen, not its main read-out; they come without a call. The list favours compounds with an active or inconclusive main result. The note in brackets gives the kind of curve behind each potency; many fits are weak.
Test: qHTS Assay for Lipid Storage Modulators in Drosophila S3 Cells;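 on cell number change: cells counted by Cell Tracker Red CMTPX staining in the red channel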
Conditions: BODIPY lipid droplet fluorescence, 18-24 h; for cell number change: measured here: cell count max response, cells fed with added oleic acid
Outline: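 Laser-scanning cytometry quantifies lipid droplet accumulation (500–530 nm total intensity; droplet/cell object ratio) in oleic acid-fed (400 uM added) Drosophila S3 cells treated with a concentration series. 20 uM Triacsin C defined 100% inhibition.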

[1] = measured here: lipid fluorescence (Fed channel) AC50, cells fed with added oleic acid
[2] = measured here: cell number channel AC50, cells fed with added oleic acid

For `CC(C)C(NS(=O)(=O)c1cccs1)C(=O)NCc1ccccc1` (stereo not drawn), the cell number change was 6.31% and the AC50 [1] was 1.16 µM [rising, full curve].

For `O=C(CSc1nnc(NC(=O)c2ccccc2[N+](=O)[O-])s1)NCC1CCCO1` (stereo not drawn), the cell number change was -12.7%.

For `CCn1c(SCC(=O)Nc2ccccc2N2CCOCC2)nnc1-c1ccccc1O`, the cell number change was 118%, the AC50 [2] was 13 µM [rising, partial curve] and the AC50 [1] was 18.4 µM [rising, partial curve].

For `CCOC(=O)CC1C(=O)NCCN1Cc1cccc(C(F)(F)F)c1` (stereo not drawn), the cell number change was -6.39% and the AC50 [1] was 2.91 µM [rising, single point].

For `CC(Oc1ccc(F)cc1)C(=O)NN` (stereo not drawn), the cell number change was 2.09% and the AC50 [1] was 29.1 µM [rising, single point].

With `O=S(=O)(NCC1CCCO1)c1cccc(S(=O)(=O)N2CCCC2)c1` (stereo not drawn) the cell number change was 4.43%.

In the case of `Cc1cc(C)n(C(=O)CCCn2cc([N+](=O)[O-])cn2)n1`, the cell number change is reported as -19.5% and the AC50 [1] is reported as 2.59 µM [falling, single point].

With `Cc1ccc(OC(C)C(=O)Nc2ccccc2C(=O)NCc2cccnc2)cc1C` (stereo not drawn) the cell number change was -28.9% and the AC50 [1] was 10.3 µM [falling, partial curve].

With `Cc1ccc(NC(=S)NCc2ccccc2)cc1[N+](=O)[O-]` the cell number change was -15% and the AC50 [1] was 20.6 µM [falling, single point].

For `O=C(Nc1nnc(S(=O)(=O)N2CCOCC2)s1)c1cccc(F)c1`, the cell number change was -16.4%.

In the case of `CN(C)c1ccc(-c2n[nH]c(=S)n2-c2ccccc2)cc1`, the AC50 [2] is reported as 2.31 µM [rising, partial curve].

In the case of `CC(C)CCN(CC(=O)NC1CCCC1)C(=O)C(=O)Nc1ccc2c(c1)OCCO2`, the cell number change is reported as -0.833% and the AC50 [1] is reported as 25.9 µM [rising, single point].

With `COc1ccc(Nc2nc(N)nc(COc3ccc(OC)cc3)n2)cc1` the cell number change was -17.2% and the AC50 [1] was 0.92 µM [falling, partial curve].

In the case of `Cn1c(SCc2nn[nH]n2)nc2c1c(=O)n(Cc1ccccc1Cl)c(=O)n2C`, the AC50 [1] is reported as 2.06 µM [falling, partial curve].

For `O=C(CCCc1ccccc1)Nc1cccc([N+](=O)[O-])c1`, the cell number change was -12.3% and the AC50 [1] was 0.206 µM [falling, full curve, poor fit].

In the case of `C=CCNC(=O)CSCc1ccc(Br)cc1`, the cell number change is reported as -11.5%, the AC50 [2] is reported as 6.51 µM [falling, single point] and the AC50 [1] is reported as 5.8 µM [falling, partial curve, poor fit].

With `CC(=O)c1ccc(NC(=O)CC(NCCC2=CCCCC2)C(=O)O)cc1` (stereo not drawn) the cell number change was 25.6% and the AC50 [1] was 18.4 µM [falling, partial curve, poor fit].

In the case of `Fc1ccc(-c2nnc3ccc(N4CCc5ccccc5C4)nn23)cc1`, the cell number change is reported as 7.55%, the AC50 [2] is reported as 3.26 µM [rising, partial curve] and the AC50 [1] is reported as 0.651 µM [rising, full curve].

With `CCC1S/C(=N/N=C/c2ccco2)NC1=O` (stereo not drawn) the cell number change was 0.708% and the AC50 [1] was 25.9 µM [falling, partial curve, poor fit].

In the case of `Cc1ccc(S(=O)(=O)Oc2ccccc2N2C(=O)C3C4CCC(C4)C3C2=O)cc1` (stereo not drawn), the cell number change is reported as 5.65% and the AC50 [1] is reported as 29.1 µM [falling, single point].

Work on `CCOc1ccc(CC2S/C(=N/c3ccccn3)NC2=O)cc1` (stereo not drawn) yielded a cell number change of -24.2%.

In the case of `O=C(O)c1nn(-c2ccccc2)c(-c2ccccc2)c1C(=O)c1ccccc1`, the AC50 [2] is reported as 0.731 µM [falling, single point].

With `Cc1ccc(CN2C(=O)c3ccccc3C2C(=O)NCc2cccnc2)cc1` (stereo not drawn) the cell number change was 19.8% and the AC50 [1] was 20.6 µM [rising, single point].

With `COc1ccc([C@@H]2CC=C(C(=O)O)[C@H](c3ccc(Cl)cc3)N2S(=O)(=O)c2ccc(C)cc2)cc1OC` the cell number change was -5.14% and the AC50 [1] was 3.26 µM [falling, partial curve, poor fit].

For `Cc1cc(C)n(S(=O)(=O)c2cc(C)c(C)cc2C)n1`, the AC50 [2] was 0.0366 µM [rising, full curve, poor fit].

With `COc1cc(SC)ccc1C(=O)Nc1ncc(Cl)cc1Cl` the cell number change was 13.3%.

In the case of `O=C(CSc1nnc(-c2ccccc2O)o1)N1CCc2ccccc2C1`, the cell number change is reported as 10.8%.

For `Cc1c(Cl)cccc1NC(=O)CCC(=O)NNC(=O)c1ccco1`, the cell number change was -20.5% and the AC50 [1] was 32.6 µM [falling, single point].

In the case of `CC1(CCc2ccc(O)cc2)NC(=O)NC1=O` (stereo not drawn), the cell number change is reported as 42.6%, the AC50 [2] is reported as 29.1 µM [rising, single point] and the AC50 [1] is reported as 0.731 µM [falling, full curve].

For `CC1CCCCC1NC(=O)C(Cc1ccccc1)NS(=O)(=O)c1cccs1` (stereo not drawn), the cell number change was -107%, the AC50 [2] was 18.4 µM [falling, single point] and the AC50 [1] was 1.16 µM [rising, full curve].

For `N#Cc1ccc2c(c1)C[C@]1(c3ccsc3)Oc3c(c(=O)oc4ccc(F)cc34)C2O1`, the cell number change was -1.45% and the AC50 [1] was 0.0841 µM [rising, full curve].

For `O=C1CSC(c2ccccc2)N1c1ccccc1F` (stereo not drawn), the cell number change was 14.3%.

For `Cc1ccnc(NC(=O)c2ccc(Cl)c(S(=O)(=O)N3CCCCC3)c2)c1`, the cell number change was -11.1% and the AC50 [1] was 11.6 µM [falling, partial curve].

For `C=CCn1c(=O)c2ccccc2n2c(SCC(=O)/C(C#N)=C(\C)N)nnc12`, the cell number change was -21.2% and the AC50 [1] was 20.6 µM [falling, single point].

For `CCOC(=O)/C=c1\s/c(=C\c2ccc3cc(OC)ccc3c2)c(=O)n1CC(=O)NCc1ccc2c(c1)OCO2`, the AC50 [1] was 23.1 µM [rising, partial curve].

Molecule `COC(=O)[C@@H](NC(=O)c1ccccc1)[C@@H](C)O` has a cell number change of 14.4%.

`Cc1cccc(-c2ocnc2C(=O)Nc2ccccc2C(=O)N2CCCC2)c1` gave a cell number change of 1.67%.

For `Oc1ccc(-c2nc3ncccn3c2Nc2ccc3c(c2)OCCO3)cc1`, the cell number change was 62.6%, the AC50 [2] was 29.1 µM [rising, single point] and the AC50 [1] was 20.6 µM [rising, partial curve].

In the case of `COc1ccc(C(=O)COC(=O)CCN2C(=O)C3C4C=CC(C5CC45)C3C2=O)cc1` (stereo not drawn), the cell number change is reported as 2.64% and the AC50 [1] is reported as 6.51 µM [falling, full curve].

In the case of `CC(C)(C)OC(=O)NCCCC[C@@H](C(=O)NCCCCCCCCCCC(=O)N1CCN(C(=O)OC(C)(C)C)CC1)n1cc(CCO)nn1`, the cell number change is reported as -33.6%, the AC50 [2] is reported as 18.4 µM [falling, single point] and the AC50 [1] is reported as 6.51 µM [rising, single point].

— PubChem BioAssay AID2685 (National Center for Advancing Translational Sciences (NCATS), 2010)
